# PubChem BioAssay AID1508600 (Functional Genomics Laboratory (NCATS/FGL), 2020)
# The campaign covered roughly 53,000 sequences. About 3,700 (7%) were called active.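 How the source made its calls: active means gene knockdowns whose robust z-score for IL-1 alpha signal is at least 2 or at most -2, so actives lie on both sides; inactive means the rest.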 The list shows a part of the results.
# Test: Components of the Cytosolic LPS Sensing Pathway: Gene Identification via Genome-wide siRNA Screen;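 further: robust z of the log signal after scaling to non-targeting control siRNA wells of the plate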
# Conditions: RAW264.7 macrophages, IL-1a HTRF, actives lie on both sides, screened at 100 nM (by protocol), cells primed 5 h with Pam3CSK4 first
# Method in brief: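 Knockdown: 100 nM siRNA, 48h, RAW264.7. Stimulation: Pam3CSK4 5 h, then LipidA via TransIT-TKO 24 h. Output: supernatant IL-1a HTRF, negative-control-normalized, log robust z-score; viability by CellTiter-Glo.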
row,Sequence,z-score
1,CGGAGCAAAUUAGGCUCUUTT against 4930402H24Rik,inactive: 0.769
2,GGUACCUCUACACAGAUGATT against Fgf21,inactive: 0.0136
3,CGCCUAGCCUACUGAGAUUTT against Zswim9,inactive: -0.462
4,GGAACUUUAUGUCUCCUACTT against Lrrc56,inactive: -0.988
5,CCCUUGGAGGAAGCUAACUTT against Pde2a,inactive: -0.29
6,GGGCGUGAAUUCAGAGAUUTT against Pcdhgb5,inactive: -0.00376
7,CCUCCAUGCUUGUUGUAGCTT against Olfr1031,inactive: -0.65
8,GGAGAUGAUGUGCUUCAGUTT against Fmo9,inactive: 0.932
9,CCAGACAGAUGGAUACCAATT against Ttpal,inactive: 0.417
10,GCCACAAGAUUCAGACCCATT against Elac2,inactive: -0.421
11,CCCUAUUUGUGAGAAUGAATT against Gldc,inactive: -0.401
12,GCAUUUCGAGCUGAUGGUGTT against Slc36a1,inactive: -0.0244
13,GGUCAUCCUUUCUGAGUUGTT against Stard3,inactive: -0.173
14,GGAUGGCUUUUUAAUGAAUTT against Chst5,inactive: 1.21
15,GGUGUCAUGGACGGAAGCUTT against Cryzl1,inactive: -0.211
16,GGAAAAAUGAGGAAGAUGATT against 6430548M08Rik,inactive: -1.15
17,CCAUUCAUGUGUGUUCAAUTT against Zfp472,inactive: 0.496
18,CCUAGCCUAGCUUGGAGAGTT against Fbxl12,inactive: -0.477
19,GGCUGCUAUCAUGGAAUUATT against Ppp2cb,inactive: 0.924
20,GGAAAGAACGACCAUAUUUTT against Pik3cb,inactive: -1.41
21,CGUAGCUAUUCUGGUUGUCTT against H2-Q6,inactive: -0.616
22,GGGAGCAGUCUUCCCUCAUTT against Cox8a,inactive: -1.44

row,Sequence,z-score
1,GGAAAAGUGGCUUUCAUUATT against Decr1,inactive: 0.0641
2,CGACAUCGAAGACAUGCUCTT against Srebf1,inactive: 1.71
3,CGAUCUAUAUGAUGGGUGUTT against Olfr609,inactive: 0.142
4,GGUCAUAUCAUUAGGUCUATT against Ptbp3,inactive: 0.15
5,GCAAGUGCACAUUAACCGGTT against Ptprr,inactive: -0.322
6,GCUUCGAGAACUUUCUCCCTT against Nrtn,inactive: 0.818
7,GUUCGGUACAACUUUUCUGTT against Alx4,inactive: 0.326
8,GCUCUUGACUCACUCAGCATT against Il1bos,active: -2.01
9,GGAAGAUCCCAGAAUUAACTT against Prrc1,inactive: 0.125
10,GGACAGAGUCAUUUGAUGUTT against Cldnd1,inactive: -0.16
11,GCCCACUCAUUCAUGGAAATT against Smndc1,inactive: -0.185
12,GGCCCUCAGUUAUUAUGAGTT against Ift140,inactive: 0.977
13,GGACAGCUUGUAAAUUGCCTT against Mup21,active: -2.05
14,GCAAGAACUAUUGCUAUUUTT against Vmn1r217,inactive: -1.18
15,CCACUUUUUGGAUAAUCUGTT against Cep104,inactive: -0.994
16,GCUAUGAAGAAAAAUCGGATT against Mettl21e,inactive: 0.362
17,GGGUUUUUUCAACCAGAAUTT against Hyal2,inactive: -1.02
18,GGCUAUCAUGUUACCUAGGTT against Olfr25,inactive: 0.385
19,GGUCAUUGUCAGUACCGGATT against Pomk,inactive: 0.943
20,CCUGUGCACUGAAAGCACGTT against Mogat2,inactive: -0.233
21,GGUGGAAAAUGGUUGGUUUTT against Mfap3,inactive: -0.493
22,CGAGCGACUAGAAAAUGACTT against Nprl2,inactive: -0.568

row,Sequence,z-score
1,GCCCACGUACAGAAAACAGTT against Aox2,inactive: -1.72
2,GGAGUGGUACACAGACAUGTT against Srd5a2,inactive: -0.113
3,CCAUUUCUCACCAGUGAUCTT against Gm5535,active: -2.61
4,GGCACCUAAAUUCUUGAAUTT against Hspb6,inactive: -0.356
5,GCGAAAUUCUAUCCAGCCATT against Trp53,inactive: 0.632
6,GCUAACCAUGUAAAAGCUATT against Pde3a,inactive: -0.976
7,GCUCCAUUGGGUGUGAACATT against Atg4d,inactive: 0.0237
8,GCAGGUACUAUGGUUAAGCTT against Dnd1,inactive: -0.263
9,GGAAACACCAAGAUUCCAGTT against Sprr3,inactive: -0.445
10,CCUGAUCAACAAACCGGAUTT against Rfxank,inactive: 1.29
11,GGCGAGAAGAUCCUUAUCCTT against Wdr3,inactive: -1.24
12,GCGGACCAUCGAGAAGUUUTT against Eef1a2,inactive: -0.933
13,CCAUUAUGGACAAUAAGAGTT against Rnf8,inactive: 0.396
14,GGAAGUCAUGAAGAACAGATT against Nup50,inactive: 0.802
15,GGUCAACAUCGAUGAGCUATT against Ppp1r14a,inactive: 0.17
16,GCGAUUACUGGAGAUAGAGTT against Zrsr1,inactive: -0.245
17,GGACAAAGACAAAAAGGAUTT against Pole3,inactive: -1.8
18,GGGCAGCUUUGAAACACUCTT against Clspn,inactive: -0.663
19,GGUUACUUUGGGAAAGUUGTT against Rpl27a,inactive: 1.56
20,CCCACUUGACUGAAAAGAUTT against Nmnat2,inactive: -0.388
21,GGCAAUUGUCCACAAACUCTT against Smyd5,inactive: 0.399
22,GGAAAGAAACCGUAUAAAUTT against Zfp93,inactive: 0.116

row,Sequence,z-score
1,GGAAUCAGAGAAAUUGUAATT against Ctsq,inactive: -1.29
2,GGCAUGAUAAGCUUCGAUGTT against Pmm1,inactive: -0.51
3,GCUUCCUGUUCGACGUAUCTT against Gdf7,inactive: 0.233
4,GAGAAUCCUCACAUAAUCATT against Tnk1,inactive: 0.813
5,GGUACACCUGGUAGAAUUGTT against Ppp1r16a,inactive: 0.497
6,GGACGACUUUGAUUUCAACTT against Stat3,inactive: 1.4
7,GGUUAACAUUUUCAGUCAUTT against Itga2,inactive: -0.986
8,CCACCAGACUCAUAUUAACTT against LOC433501,inactive: -1.38
9,GGUGGCCAAGGAAAAUGGUTT against Pcx,inactive: -0.477
10,GGCUUCUUUUUGUUCUCUGTT against Apex2,inactive: -1.85
11,GCAAAGCUGAUGGACUCAATT against Zbed5,inactive: -0.179
12,CCUGCACUGGGAAAUAUGGTT against Polr2g,inactive: -1.76
13,GGCCAGAUCUUCUAAAUUCTT against Lect2,inactive: 0.552
14,GGCCAAGCUGAUCAAUAUATT against Oprd1,inactive: -0.0338
15,GCUCUUAGAUACAGUUUUATT against Pds5b,inactive: 0.598
16,GCGUGGACGAAUGGAAACATT against Mapk13,inactive: -0.942
17,GGUCGACAUUGAAGCUAUUTT against Ralyl,inactive: -0.517
18,GGACAUCACCAUGACAGACTT against Pnmt,inactive: -1.61
19,GGAGAGCGGGUCAUCACAUTT against Efna4,inactive: 1.52
20,GCAAUACUUUGCAUGCAUUTT against 9530002B09Rik,inactive: 0.16
21,GGCAUGAAUCAGUCUAUGGTT against Olfr1308,inactive: 0.656
22,GCCAAGUAAAACCAAAUGUTT against Ldlrad4,inactive: -1.85

# Another view of some results above:
row	Sequence	z-score
5	GGUACACCUGGUAGAAUUGTT against Ppp1r16a	inactive: 0.497
9	GGUGGCCAAGGAAAAUGGUTT against Pcx	inactive: -0.477
19	GGAGAGCGGGUCAUCACAUTT against Efna4	inactive: 1.52
20	GCAAUACUUUGCAUGCAUUTT against 9530002B09Rik	inactive: 0.16
21	GGCAUGAAUCAGUCUAUGGTT against Olfr1308	inactive: 0.656

# Continued:

row,Sequence,z-score
1,GGAUAGGUGGCUGAUAGUGTT against Hsd3b4,inactive: -0.0303
2,GGAGCUGGAGACUAAAGCUTT against Slc29a2,inactive: -0.478
3,GGAACUUGAAAUCGUAAUUTT against Magohb,inactive: -0.121
4,GGCUACGAAACCAGAAGAUTT against Shd,inactive: -1.03
5,GGAGGUUGAGGCUUCUAAGTT against Pacsin3,inactive: 1.2
6,GCUCACAGAAACGACCCAUTT against Bicd1,inactive: -0.686
7,GGCAUUUAUUUACCCUAGATT against Pcdha11,inactive: 0.596
8,GGAGCAGACGAUAUGCAGATT against Copb2,inactive: 0.559
9,GGAACUGCCCAUUCAUCUATT against Pramel6,inactive: -0.464
10,GGAUAUCAACAGAUACAUCTT against Serpina12,inactive: -0.493
11,GGUUAUUAUAAUGAUCUGGTT against Wdr33,inactive: 0.836
12,CCUUAUAAGAAAGAUAGACTT against Nhlrc2,inactive: -0.591
13,GGUUCCAACCGAUAAGUAUTT against Fh1,inactive: 1.1
14,CCUGGUAACCUGCUAAAAGTT against Gm5124,inactive: 1.24
15,GGCUUGUCCACUGAACCUUTT against Nop2,inactive: 0.0118
16,GCAAAAUCUAGGGAUAAGATT against Trdv2-2,inactive: 0.259
17,GCAGUCUCACCUGAACAGATT against Eppin,inactive: 0.43
18,CCAUGGACCAAAUGAAGUUTT against Cd44,active: 2.59
